This is an account of results in publication PMC11194565.

Sequences of proteins named here, by UniProt entry; tags and fusion partners are left off. A change or cut given only in a name is not applied to a line headed by its entry. A line that says so, or that is headed by a name, gives the form on record, which may keep a tag or linker.
UniProt Q8N726: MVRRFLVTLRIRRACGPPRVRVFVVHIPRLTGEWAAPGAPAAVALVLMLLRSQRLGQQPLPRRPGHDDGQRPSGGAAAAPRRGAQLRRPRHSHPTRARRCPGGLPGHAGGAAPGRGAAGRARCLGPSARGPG
purified Flag-tagged point mutant ARF (substitution of Phe23 and Leu49 into Alanine; 2A) (Q8N726, form named): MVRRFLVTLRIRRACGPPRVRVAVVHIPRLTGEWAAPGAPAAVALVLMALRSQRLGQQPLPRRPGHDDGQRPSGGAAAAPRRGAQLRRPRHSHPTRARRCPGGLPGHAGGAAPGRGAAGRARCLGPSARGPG
UniProt Q9NRC8: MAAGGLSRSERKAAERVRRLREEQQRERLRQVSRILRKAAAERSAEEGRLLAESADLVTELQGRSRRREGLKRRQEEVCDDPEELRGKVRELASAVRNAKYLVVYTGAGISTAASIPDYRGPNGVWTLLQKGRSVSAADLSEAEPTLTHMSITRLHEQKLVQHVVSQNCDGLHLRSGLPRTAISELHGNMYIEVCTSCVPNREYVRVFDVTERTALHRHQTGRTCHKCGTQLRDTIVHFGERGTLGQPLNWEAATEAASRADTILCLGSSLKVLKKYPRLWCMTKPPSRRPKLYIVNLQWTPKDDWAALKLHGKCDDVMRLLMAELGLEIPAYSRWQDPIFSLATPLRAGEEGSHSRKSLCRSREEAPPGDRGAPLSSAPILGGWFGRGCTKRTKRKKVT
UniProt P06748: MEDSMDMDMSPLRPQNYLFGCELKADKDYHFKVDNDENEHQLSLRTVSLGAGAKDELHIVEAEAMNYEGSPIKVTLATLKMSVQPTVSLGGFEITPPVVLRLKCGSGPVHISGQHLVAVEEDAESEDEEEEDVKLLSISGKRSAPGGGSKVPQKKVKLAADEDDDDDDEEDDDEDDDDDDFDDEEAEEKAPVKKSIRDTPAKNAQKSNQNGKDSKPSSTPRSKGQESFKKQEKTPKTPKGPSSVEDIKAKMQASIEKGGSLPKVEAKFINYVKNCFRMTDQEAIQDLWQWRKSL

These are yes or no findings as the source states them, for the method shown. For some of these results: Binding seen in cells or lysates may run through a third protein. Some results given as binding are weak or reduced against the parent protein; the word gives no strength.

For experiment [1], the target named is Flag-tagged p14ARF (human) (UniProt Q8N726). The experiment is described as follows: co-IP; 293T HEK cells transfected with YFP-tagged WT or HY mutant SIRT7 and Flag-tagged p14ARF; IP with anti-Flag antibody, blot with anti-Flag and anti-YFP; nonimmune IgG as negative control.
For experiment [2], the target named is GST-tagged p14ARF (human) (UniProt Q8N726). The experiment is described as follows: pull-down; GST-pull down of bacterial purified GST-tagged p14ARF and His-tagged SIRT7; both purified.
The target in experiment [3] is V5-tagged p14ARF (human) (UniProt Q8N726). Description: co-IP; stable scrambled and NPM KD H1299 cells transfected with V5-tagged p14ARF; IP with anti-V5 antibody, blot with anti-V5 and SIRT7 antibodies.
Experiment [4] deals with p14ARF (endogenous, H1299) (human (endogenous in H1299)) (UniProt Q8N726). The experiment is described as follows: co-IP; endogenous proteins in scrambled and SIRT7 KD H1299 cells; IP with anti-p14ARF antibody, blot with anti-p14 and SIRT7 antibodies; nonimmune IgG as negative control.
For experiment [5], the target named is purified Flag-tagged point mutant ARF (substitution of Phe23 and Leu49 into Alanine; 2A) (human) (UniProt Q8N726). Description: co-IP; purified Flag-tagged WT or 2A point mutant ARF and Flag-tagged NPM; IP with anti-ARF antibody, blot with anti-Flag antibody; both purified.
For experiment [6], the target named is purified Flag-tagged SIRT7 (UniProt Q9NRC8). The experiment is described as follows: co-IP; purified Flag-tagged WT or 2A point mutant ARF and Flag-tagged SIRT7; IP with anti-SIRT7 antibody, blot with anti-Flag antibody; both purified.

With “YFP-tagged WT SIRT7 (from UniProt Q9NRC8 1-400) (enzyme)”, the binding entry in experiment [1] is “binds”.

Take “His-tagged SIRT7 (from UniProt Q9NRC8 1-400) (enzyme)”: the binding result in experiment [2] is recorded as “binds”. On to “SIRT7 (endogenous, H1299) (from UniProt Q9NRC8 1-400) (enzyme)”, for which the binding result in experiment [3] and in experiment [4] was “binds” each time. “purified Flag-tagged NPM (from UniProt P06748 1-294)”: in experiment [5], the binding result is on record as “binds”.

In the case of “purified Flag-tagged ARF (WT) (from UniProt Q8N726 1-132)”, in experiment [6], the binding result is recorded as “binds”. Still for that read-out and setting: the entry for “purified Flag-tagged point mutant ARF (substitution of Phe23 and Leu49 into Alanine; 2A) (from UniProt Q8N726 1-132)” is “binds”.
